Hit rate of the full screen: of about 400,000 compounds, about 13,000 (3.2%) were called active. Inconclusive results, whose numbers are uncertain, are shown with a selection of clear calls. Calls follow the shape of the dose curve; as a rule, active = well fitted cell-killing curve with a large enough effect; inconclusive = small, poorly fitted or top-dose-only effect, or effect the other way; inactive = flat fitted curve, though single readings scatter. Where the call is inconclusive, the potency comes from a doubtful curve fit.
Assay: qHTS assay for MDR1-selective chemotherapeutics: Primary screen using the drug-selected MDR subline cells KB-V1; also: nearly all actives have a fitted effect of over 60% in size
Conditions: KB-V1 MDR cells viability, CellTiter-Glo, 72 h; activity change, negative = cytotoxicity: at 46.1 µM (top of the series)
In short: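 Cytotoxicity via CellTiter-Glo luminescence after 72 h compound exposure at 37 degrees C. Cells: drug-selected KB-V1 line, DMEM phenol-red free plus 10% FBS. Compounds tested at multiple concentrations; normalized data fitted to concentration-effect curves.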
In the case of CCCCCCCCN1C(=O)[C@H](CC(=O)NCCCC)C[C@@]2(C(=O)OC)CC(C)(C)CC=C12, the Potency was active: 20.6 µM.
In the case of CNN/C(N=Cc1ccc([N+](=O)[O-])s1)=N\S(=O)(=O)c1cc(C)c(Cl)cc1SCc1ccccc1, the activity change, negative = cytotoxicity was inconclusive: -20.5%.
For Cc1cc(/C=N/n2cnnc2)c(C)n1-c1ccc2c(c1)OCO2, the Potency was active: 5.17 µM.
For O=C(NCc1ccco1)c1ccc2nccnc2c1, the “activity change, negative = cytotoxicity” value was inactive: 5.76%.
For CCCC1=Nc2cc(C(=O)NCCCOC(C)C)ccc2Sc2ccccc21, the Potency was active: 7.31 µM.
For CC1Sc2ccc(S(=O)(=O)CCC(=O)NC3CCCCC3C)cc2NC1=O (configuration not stated), the Potency was inconclusive: 29.1 µM [cytotoxic, single point].
In the case of CCN(CC(=O)Nc1c(F)cccc1F)C(=O)C1CCCO1 (configuration not stated), the “activity change, negative = cytotoxicity” value was inactive: 20.7%.
For CCNC(=S)NNC(=O)c1csc2c1CCCC2, the Potency was active: 25.9 µM.
For COc1cc(OC)c(-c2nn3c(C4CCCCC4)nnc3s2)cc1OC, the activity change, negative = cytotoxicity was inconclusive: -83.7%.
For Cc1onc(-c2ccccc2Cl)c1C(=O)Nc1ccccc1C(=O)NC(C)C, the Potency was inconclusive: 25.9 µM [cytotoxic, partial curve, poor fit].
In the case of Cc1ccc(C(C)n2cc(C(=O)NCc3ccccn3)nn2)cc1 (configuration not stated), the Potency was inconclusive: 29.1 µM [cytotoxic, single point].
For CC(C)Cn1c(CCC(N)=O)nnc1SC(C)C(=O)Nc1ccc2c(c1)OCO2 (configuration not stated), the Potency was inconclusive: 29.1 µM [rising, single point].
For CCOc1cc(CNc2ccc(S(N)(=O)=O)cc2)cc(Cl)c1OC, the “activity change, negative = cytotoxicity” value was inactive: -13%.
With CCN1CCN(C(=O)/C=C/c2c(F)cccc2Cl)CC1 the Potency was inconclusive: 10.3 µM [cytotoxic, partial curve].
In the case of COC(=O)Cc1[nH]n(-c2nc3ccccc3s2)c(=O)c1C(C)=Nc1ccc(Cl)cc1, the “activity change, negative = cytotoxicity” value was inactive: -3.17%.
In the case of Cc1ccc2c(c1)N(C(=O)N1CCC(C(=O)NCc3cccs3)CC1)CC(C)O2 (configuration not stated), the “activity change, negative = cytotoxicity” value was inactive: -26.4%.
With CCOC(=O)c1c(NC(=O)c2c(Br)cnn2C)c(C#N)nn1-c1ccccc1 the Potency was inconclusive: 20.6 µM [cytotoxic, single point].
For COc1ccc(OC)c(S(=O)(=O)N2CCC(C(=O)Nc3cc(C)ccc3C)CC2)c1, the Potency was inconclusive: 25.9 µM [cytotoxic, single point].
With CC(=O)Nc1ccc(NC(=O)C2CCN(C(=O)c3cccs3)CC2)cc1 the “activity change, negative = cytotoxicity” value was inactive: 3.26%.
In the case of Cc1nn2c(=O)cc(COC(=O)C(c3ccccc3)c3ccccc3)nc2s1, the “activity change, negative = cytotoxicity” value was inactive: 0%.
In the case of CC(=O)NC(C)(c1ccccc1)c1nc(-c2cccc(C#N)c2)cs1 (configuration not stated), the “activity change, negative = cytotoxicity” value was inactive: -0.226%.
In the case of c1ccc2oc(-c3csc(N4CCOCC4)n3)cc2c1, the Potency was inconclusive: 9.2 µM [cytotoxic, partial curve, poor fit].
% is scaled to controls: 0 for no effect and ±100 for the full control effect; potency is read from the fitted curve at half-maximal effect.
